This note sets out measurements from PMC11358003, “A bispecific antibody approach for the potential prophylactic treatment of inherited bleeding disorders” (Nature Cardiovascular Research, 2024).

Results are given in words; binding and its absence hold for the method and conditions named. Binding calls can cover weak binding; strength is not graded here.

In the test the target is T1, soluble extracellular fragment of TLT-1 (sTLT-1) (human) (UniProt Q86YW5).
T1 sequence: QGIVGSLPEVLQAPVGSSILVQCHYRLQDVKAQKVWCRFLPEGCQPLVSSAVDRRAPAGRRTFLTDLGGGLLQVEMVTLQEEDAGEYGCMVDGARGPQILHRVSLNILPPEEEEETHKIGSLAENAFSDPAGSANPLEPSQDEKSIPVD
The experiment in a line: SPR; Biacore 8K, 25 °C, ABA injection; His-tagged sTLT-1 (400 nM) captured on immobilised anti-His antibody on a CM5 chip; fibrinogen 0-1,000 nM injected in running buffer, 1 μM HMB-001 or 1 μM pTLT-1 antibody; 10 mM HEPES, 150 mM NaCl, 0.05% polysorbate 20, pH 7.4, 5 mM CaCl2, 1 mg/ml BSA; not fitted; n = 2; both purified. For orientation: Surface plasmon resonance follows binding to a sensor surface in real time, without labels.

For fibrinogen (complex), the binding entry is on record as “binds”.
